These are yes or no findings as the source states them, for the method shown. In cells and extracts the contact can be indirect. Some results given as binding are weak or reduced against the parent protein; the word gives no strength. Each block holds one substance with its values, some of them ahead of it.
Key:
[1] = target: GST-Sox17 fusion protein (pGEX-mouse Sox17) (mouse) (UniProt Q61473); assay: pull-down; GST-Sox17 pull-down of Smad3 deletion constructs at low stringency binding conditions; data not shown; only the target purified
[2] = target: GST-Sox17 fusion protein (pGEX-mouse Sox17) (mouse) (UniProt Q61473); assay: pull-down; 4–8 µg GST-Sox17 on glutathione sepharose beads incubated with precleared MLE-15 lysates expressing FLAG-Smad3 constructs; higher stringency conditions; washes 20 mM Tris pH 8.0, 1 mM EDTA, 300–500 mM NaCl, 0.5% NP-40; anti-FLAG immunoblot; only the target purified
[3] = target: Sox17 (co-immunoprecipitation, data not shown) (UniProt Q61473); assay: co-IP; co-immunoprecipitation assays; data not shown; no methods given
[4] = target: GST-Smad3 (pGEX-human Smad3) (human) (UniProt P84022); assay: pull-down; 4–8 µg GST-Smad3 on glutathione sepharose beads incubated with precleared MLE-15 lysates expressing Sox17-V5 constructs; multiple binding stringencies; washes 20 mM Tris pH 8.0, 1 mM EDTA, 300–500 mM NaCl, 0.5% NP-40; anti-V5 immunoblot; only the target purified

Chains of the proteins cited; added tags and fusions are not shown. Lines headed by an entry give the natural chain unless they say otherwise; changes in a name come on top. Residues count along the entry.
UniProt Q61473: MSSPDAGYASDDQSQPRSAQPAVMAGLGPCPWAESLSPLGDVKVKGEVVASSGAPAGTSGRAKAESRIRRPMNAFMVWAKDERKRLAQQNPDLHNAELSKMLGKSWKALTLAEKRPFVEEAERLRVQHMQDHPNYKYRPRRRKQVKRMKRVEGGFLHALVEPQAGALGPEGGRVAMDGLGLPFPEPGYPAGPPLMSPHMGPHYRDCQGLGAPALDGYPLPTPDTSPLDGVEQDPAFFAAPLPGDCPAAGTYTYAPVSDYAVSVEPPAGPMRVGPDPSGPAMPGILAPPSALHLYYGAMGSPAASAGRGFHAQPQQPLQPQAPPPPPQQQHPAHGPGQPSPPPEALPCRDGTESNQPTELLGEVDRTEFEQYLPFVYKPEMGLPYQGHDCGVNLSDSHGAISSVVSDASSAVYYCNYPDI
Sox17-V5 N-terminal deletion (129–419): residues 129-419 of Q61473
UniProt P84022: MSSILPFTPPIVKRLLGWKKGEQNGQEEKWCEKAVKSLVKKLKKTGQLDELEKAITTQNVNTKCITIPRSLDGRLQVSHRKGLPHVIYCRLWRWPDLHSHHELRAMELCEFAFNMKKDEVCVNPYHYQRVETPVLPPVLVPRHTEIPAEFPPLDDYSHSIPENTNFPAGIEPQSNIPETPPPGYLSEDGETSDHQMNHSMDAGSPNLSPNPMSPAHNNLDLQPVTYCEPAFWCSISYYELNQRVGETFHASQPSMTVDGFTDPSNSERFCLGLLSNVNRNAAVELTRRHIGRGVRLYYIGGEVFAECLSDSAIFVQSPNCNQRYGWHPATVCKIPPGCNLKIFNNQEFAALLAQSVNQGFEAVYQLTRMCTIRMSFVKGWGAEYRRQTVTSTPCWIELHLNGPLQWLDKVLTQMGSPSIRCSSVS

binding [1]: binds
Substance: FLAG-Smad3 (1–145) (from UniProt P84022 1-145) (domain or fragment)

binding [2]: binds
Substance: FLAG-Smad3 (1–425) (from UniProt P84022 1-425)

binding [2]: binds
Substance: FLAG-Smad3 (146–425) (from UniProt P84022 146-425) (domain or fragment)

binding [1]: binds
Substance: FLAG-Smad3 (220–425) (from UniProt P84022 220-425) (domain or fragment)

binding [3]: binds
Substance: Smad3 (co-immunoprecipitation, data not shown) (from UniProt P84022 1-425)

binding [4]: binds
Substance: Sox17-V5 C-terminal deletion (1–359) (from UniProt Q61473 1-359) (domain or fragment)

binding [4]: binds
Substance: Sox17-V5 DNA binding domain point mutant (M76A) (from UniProt Q61473 1-419)

binding [4]: binds
Substance: Sox17-V5 N-terminal deletion (129–419) (from UniProt Q61473-1 129-419) (domain or fragment)

binding [4]: binds
Substance: Sox17-V5, wild type Sox17 (1–419) (from UniProt Q61473 1-419)
